PubChem BioAssay AID504793 – Drosophila RNAi Screening Center – 2011

Assay: 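Whole-genome screen for parts of the DNA damage checkpoint at G2/M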 (primary screen)
Cells: Drosophila S2R+ cells
Reagent: long dsRNA against Drosophila genes, about 0.25 µg dsRNA per well
Time to read-out: 4 days of dsRNA, then 4 hours of drug before read-out
Challenge: doxorubicin 0.5 µM for 4 hours to cause double-strand breaks, in cells also given a low, harmless dose of dsRNA against nbs to sensitise the assay
Measured: 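Per-well count of mitotic cells stained for phospho-histone H3 after doxorubicin exposure, used as mitotic index; counts are raw and not normalised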
Reading the numbers: mitotic cells: higher = more cells in mitosis, weaker G2 arrest
Hit rule: 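a call needs confirmation in secondary tests, with other dsRNAs and a check of mitotic timing without damage, not just a high primary count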
Meaning of the calls: active = confirmed in follow-up tests; inactive = not confirmed
The screen tested about 23,000 reagents; this is an unselected part of those with a known target gene and a result. Of all reagents, 62 (0.27%) got an active call. 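Calls come from follow-up tests whose scores are not deposited, so confirmed genes may have low counts here; counts are not normalised per plate.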 Raw values vary from plate to plate and are shown uncorrected. Reagent sequences are not shown.

Nadk1b (GeneID 36507) [DRSC06964]: mitotic cells, replicate 1 = 3; Outcome = inactive
Nadk1b (GeneID 36507) [DRSC06965]: mitotic cells, replicate 1 = 3; Outcome = inactive
Nadk1b (GeneID 36507) [DRSC25741]: mitotic cells, replicate 1 = 8; Outcome = inactive
wda (GeneID 42750) [DRSC15579]: mitotic cells, replicate 1 = 11; Outcome = inactive
wda (GeneID 42750) [DRSC22351]: mitotic cells, replicate 1 = 10; Outcome = inactive
Sema5c (GeneID 37066) [DRSC11279]: mitotic cells, replicate 1 = 2; Outcome = inactive
Sema5c (GeneID 37066) [DRSC26621]: mitotic cells, replicate 1 = 8; Outcome = inactive
AdoR (GeneID 43583) [DRSC16556]: mitotic cells, replicate 1 = 13; Outcome = inactive
AdoR (GeneID 43583) [DRSC28071]: mitotic cells, replicate 1 = 3; Outcome = inactive
LeuRS (GeneID 326262) [DRSC00581]: mitotic cells, replicate 1 = 4; Outcome = inactive

2 successive entries from above:
wda (GeneID 42750) [DRSC15579]: mitotic cells, replicate 1 = 11; Outcome = inactive
wda (GeneID 42750) [DRSC22351]: mitotic cells, replicate 1 = 10; Outcome = inactive

The list goes on.
CrebA (GeneID 39682) [DRSC11122]: mitotic cells, replicate 1 = 4; Outcome = inactive
CG32568 (GeneID 32659) [DRSC19913]: mitotic cells, replicate 1 = 11; Outcome = inactive
Pgant1 (GeneID 36717) [DRSC07095]: mitotic cells, replicate 1 = 4; Outcome = inactive
CG3823 (GeneID 31573) [DRSC18325]: mitotic cells, replicate 1 = 8; Outcome = inactive
CG3823 (GeneID 31573) [DRSC26025]: mitotic cells, replicate 1 = 11; Outcome = inactive
